PubChem BioAssay AID720505 – Drosophila RNAi Screening Center, 2013
The screen tested about 20,000 reagents; this is an unselected part of those with a known target gene and a result. Over the whole deposit, about 2,100 (10%) were called active. 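Raw plate signals without normalisation; calls rest on control-based scores that were not deposited; replicate 2 separates called from uncalled poorly.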 Unmarked entries are inactive. A plus sign joins genes that one reagent is predicted to hit. Not given: the amount of reagent, the time to read-out.

- Assay: 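Genes needed for store-operated calcium entry in fly cells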 (primary screen)
- Cells: Drosophila S2R+ cells
- Reagents: long dsRNA against Drosophila genes
- Challenge: thapsigargin (2 µM) in calcium-free buffer to empty internal stores, then 2 mM calcium added back
- Detection: 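Stores emptied by 2 µM thapsigargin without calcium, then 2 mM calcium re-added; fluo-4 fluorescence followed by FLIPR in 384-well plates, per-well averaged endpoint, raw; two screen passes, some wells retested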
- Scale: calcium signal and retest calcium signal: higher = more calcium entry after store depletion
- Rule for the call: 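Knock-downs counted as hits when calcium entry dropped relative to STIM1 positive and Rho1 negative controls present on each plate; roughly 1500 genes called, with reductions of differing size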
- Meaning of the calls: active = called as lowering calcium entry; inactive = not called

| target gene | dsRNA | calcium signal, replicate 1 | calcium signal, replicate 2 | retest calcium signal, replicate 1 | retest calcium signal, replicate 2 |
| --- | --- | --- | --- | --- | --- |
| Loxl1 (GeneID 43712) | DRSC14303 | 94.1 | 116 | – | – |
| CG5039 (GeneID 43100) | DRSC15703 | 150 | 104 | – | – |
| CG7083 (GeneID 38943) | DRSC11136 | 71.7 | 66.9 | – | – |
| CG18371 (GeneID 36556) | DRSC06733 | 103 | 161 | – | – |
| CG18294 (GeneID 40115) | DRSC09891 | 126 | 159 | – | – |
| Ndfip (GeneID 326197) | DRSC11201 | 95.8 | 131 | – | – |
| CG8067 (GeneID 36552) | DRSC07065 | 162 | 205 | – | – |
| Anp (GeneID 43595) | DRSC14112 | 98.9 | 90.3 | – | – |
| yellow-g (GeneID 38294) | DRSC08575 | 61 | 95.2 | – | – |
| retinin (GeneID 53564) | DRSC09940 | 71.6 | 179 | – | – |
| Syx13 (GeneID 39485) | DRSC09836 | 92.3 | 113 | – | – |
| CG4612 (GeneID 37914) | DRSC04478 | 152 | 91.4 | – | – |
| CG33108 (GeneID 326257) | DRSC21613 | 150 | 103 | – | – |
| Cyp6a21 (GeneID 36665) | DRSC07381 | 87.8 | 174 | – | – |
| Gmppa (GeneID 36730) | DRSC07108 | 113 | 213 | – | – |
| CG16896 (GeneID 37977) | DRSC04284 | 204 | 79.5 | – | – |
| CG12895 (GeneID 36103) | DRSC06210 | 85 | 158 | – | – |
| TTLL6B (GeneID 43282) | DRSC15932 | 119 | 154 | – | – |
| CG13589 (GeneID 37906) | DRSC04225 | 111 | 189 | – | – |
| lncRNA:roX2 (GeneID 3772415) | DRSC22237 | 72 | 205 | – | – |
| Nuf2 (GeneID 33992) | DRSC03123 | 114 | 187 | – | – |
| Dhc16F (GeneID 32785) | DRSC20242 | 112 | 150 | – | – |
| Obp19a (GeneID 33037) | DRSC20487 | 101 | 110 | – | – |
| rngo (GeneID 32616) | DRSC19903 | 141 | 153 | – | – |
| Vang (GeneID 35922) | DRSC07570 | 116 | 193 | – | – |
| CycC (GeneID 41801) | DRSC16619 | 66.8 (active) | 98.3 | – | – |
| Abl (GeneID 45821) | DRSC09661 | 114 | 165 | – | – |
| Abl (GeneID 45821) | DRSC23306 | 104 | 125 | – | – |
| Spn27A (GeneID 45815) | DRSC03608 | 131 | 114 | – | – |
| CG8671 (GeneID 35400) | DRSC03102 | 212 | 81.9 | – | – |
| CG8671 (GeneID 35400) | DRSC03103 | 160 | 92.5 | – | – |
| Cont (GeneID 40553) | DRSC12149 | 57.5 (active) | 104 | – | – |
| mRpL10 (GeneID 33182) | DRSC00312 | 111 | 110 | – | – |
| GstD8 (GeneID 48341) | DRSC16689 | 211 | 174 | – | – |
| CG17637 (GeneID 40275) | DRSC11740 | 110 | 216 | – | – |
| CG1571 (GeneID 31725) | DRSC18068 | 158 | 92.1 | – | – |
| Kap3 (GeneID 32071) | DRSC19426 | 127 | 98.1 | – | – |
| CG5704 (GeneID 48613) | DRSC08572 | 143 | 160 | – | – |
| ghi (GeneID 317833) | DRSC08985 | 97.8 | 75.7 | – | – |
| CG3085 (GeneID 37663) | DRSC04335 | 175 | 124 | – | – |
| FucTD (GeneID 38164) | DRSC08634 | 98.3 | 139 | – | – |
| spd-2 (GeneID 39850) | DRSC09682 | 88.3 | 107 | – | – |
| Cipc (GeneID 43177) | DRSC14898 | 84.2 | 89.9 | – | – |
| Cipc (GeneID 43177) | DRSC14900 | 260 | 149 | – | – |
| IntS6 (GeneID 31496) | DRSC18281 | 116 | 81.5 | – | – |
| Psf2 (GeneID 33641) | DRSC00516 | 112 | 84.8 | – | – |
| CG3163 (GeneID 37836) | DRSC04341 | 184 | 79.8 | – | – |
| Sox14 (GeneID 37822) | DRSC04656 | 188 | 226 | – | – |
| CG42566 (GeneID 8674120) | DRSC03949 | 124 | 9504 | – | – |
| DIP-iota (GeneID 33925) | DRSC02140 | 121 | 96.9 | – | – |
| Or1a (GeneID 30978) | DRSC18689 | 117 | 118 | – | – |
| ETH + asRNA:CR43257 | DRSC04612 | 108 | 144 | – | – |
| CG7840 (GeneID 34136) | DRSC03075 | 127 | 252 | – | – |
| CG14657 (GeneID 40602) | DRSC12219 | 85.5 | 95.5 | – | – |
| CG14657 (GeneID 40602) | DRSC12243 | 96.3 | 113 | – | – |
| Esp (GeneID 42962) | DRSC16664 | 128 | 120 | – | – |
| CG43052 (GeneID 12798214) | DRSC03059 | 104 | 96.7 | – | – |
| shf (GeneID 31617) | DRSC18283 | 188 | 123 | – | – |
| CG15712 (GeneID 36843) | DRSC06583 | 174 | 130 | – | – |
| vis + achi | DRSC07277 | 133 | 203 | – | – |
| CG7300 (GeneID 34472) | DRSC03044 | 68.4 (active) | 101 | – | – |
| Roc2 (GeneID 36246) | DRSC07313 | 90.3 | 175 | – | – |
| CG42869 + Sfp93F | DRSC13505 | 43.2 (active) | 107 | – | – |
| CG15890 (GeneID 32401) | DRSC19737 | 116 | 104 | – | – |
| Boh1 (GeneID 338395) | DRSC14487 | 80.5 | 100 | – | – |
| rtp (GeneID 40627) | DRSC12132 | 60.5 (active) | 118 | – | – |
| LManII (GeneID 34437) | DRSC01986 | 92.2 | 126 | – | – |
| Tailor (GeneID 40847) | DRSC12526 | 130 | 183 | – | – |
| CG11882 (GeneID 43446) | DRSC14425 | 61.9 (active) | 98.5 | – | – |
| CG32365 (GeneID 38876) | DRSC10040 | 84.6 | 79.4 | – | – |
| CG32365 (GeneID 38876) | DRSC10041 | 50.5 (active) | 44.6 | – | – |
| CG32365 (GeneID 38876) | DRSC10977 | 66.3 | 55.8 | – | – |
| CG12609 (GeneID 32862) | DRSC19473 | 61.9 (active) | 89.8 | – | – |
| Mhcl (GeneID 41955) | DRSC14216 | 142 | 160 | – | – |
| Mhcl (GeneID 41955) | DRSC16753 | 142 | 135 | – | – |
| Obp19b (GeneID 33038) | DRSC20536 | 83.7 | 106 | – | – |
| Hesr (GeneID 32800) | DRSC19965 | 102 | 121 | – | – |
| lz (GeneID 31883) | DRSC18790 | 120 | 110 | 8290 | 139 |
| lz (GeneID 31883) | DRSC22302 | 124 | 235 | – | – |
| CG13694 (GeneID 33169) | DRSC00363 | 171 | 98.2 | – | – |
| Golgin84 (GeneID 42905) | DRSC15269 | 176 | 175 | – | – |
| CG13244 (GeneID 34940) | DRSC21642 | 147 | 127 | – | – |
| Ugt37A2 (GeneID 41573) | DRSC15861 | 174 | 89.3 | – | – |

Records above whose target name begins with T or t (2):
| target gene | dsRNA | calcium signal, replicate 1 | calcium signal, replicate 2 | retest calcium signal, replicate 1 | retest calcium signal, replicate 2 |
| --- | --- | --- | --- | --- | --- |
| TTLL6B (GeneID 43282) | DRSC15932 | 119 | 154 | – | – |
| Tailor (GeneID 40847) | DRSC12526 | 130 | 183 | – | – |
